Results of single-concentration screens

From ChEMBL document CHEMBL3988442, “University of Dundee, Small-Polar-MMV Screening Library” (2021).

Mtb cholesterol medium: 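Phenotypic screen: M. tuberculosis growth, cholesterol and DPPC medium, 4 days; the read-out is not stated. Concentration: 50 µM. The record gives no direction; compounds that gave an IC50 in retests scored well above the rest, so higher reads as more growth inhibition. About 69,000 compounds were tested under these conditions; 0.54% (about 370) showed 50% or more at least once.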
Mtb glucose medium: 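Phenotypic screen: M. tuberculosis growth, glucose 7H9 medium, 3 days; the read-out is not stated. Tested at 50 µM. Direction is inferred from retests: higher values go with more growth inhibition. About 69,000 compounds were tested under these conditions; 1.1% (about 760) showed 50% or more at least once.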

Values are the deposited “Percent Effect”, in %. The record does not define 0% and 100%; most values in the screen are far below 50% and negative numbers occur (in some assays of this library far below -100). This is an unselected part of the compounds tested. Two or more numbers in one place are separate tests of the same structure; such repeats can differ widely.

compound,Mtb cholesterol medium,Mtb glucose medium
O=C(O)C(F)(F)F.[H][C@]12CCC(=O)N(c3cccnc3)[C@@]1([H])CCN2C(=O)c1occc1C,10.2 & -16.12,11.4
O=C(O)C(F)(F)F.O=C(O)C(F)(F)F.[H][C@]12CCN(c3cnn(C)c3)C(=O)[C@]1([H])CN(Cc1ccncc1)C2,-8.178,-15.11
Cc1cc(N2CCC(N(C)C(=O)c3sccc3C)CC2)nc(C)n1,10.79,1.525
CCNc1cc2c(nn1)CCN(C(=O)Cc1noc3ccccc13)C2,0.1706,-10.29
O=C(O)C(F)(F)F.O=C(O)C(F)(F)F.[H][C@@]12CCN(C(=O)Cc3ccsc3)[C@@]1([H])CC(=O)N2Cc1cccnc1,-4.676,3.642
CCNc1cc2c(nn1)CCN(C(=O)Cc1ccc(C)nc1)C2,-6.768,-8.237
Cc1nnc2n1CCN(CC(=O)NC(C)c1cccc3ccccc13)C2 (centres undefined),-9.004,-20.36
CN(Cc1ccon1)C(=O)C1CC(=O)N(Cc2cccnc2)C1 (centres undefined),9.523,-30.77 & -3.485
Cc1cccc(CNC2CC(=O)N(CCc3cccc(Cl)c3)C2)n1 (centres undefined),8.265,23.13
Cc1cc(NC(N)=O)ccc1C(=O)N(C)C,11.55,-6.014
CC(C)S(=O)(=O)CC(=O)N(Cc1ccsc1)c1ccccc1,10.35,-3.04
Cn1ccc2ccc(C(=O)N3CCN(C(=O)N4CCOCC4)CC3)cc21,-22.57,-7.454
CCN1CCN(C(=O)c2cc(F)cc3nc(C)c(C)nc23)CC1,-3.631,-2.636 & -23.3
O=C(O)C(F)(F)F.[H][C@@]12C[C@@H](c3nc(C)no3)CN(Cc3cc(C)c(C)o3)[C@]1([H])CCO2,-14.24,-1.283
CC1(C)CCN(S(=O)(=O)N2CCCC(c3cccc(C(=O)O)c3)C2)CC1 (centres undefined),8.619,6.218 & 18.9
Cc1ccc(-c2ncc(CNc3cnccc3CO)s2)o1,-5.87,-35.62
Cc1nc(C)n(CC2CN(CCCOc3ccccc3C)CCO2)n1 (centres undefined),-25.52,-9.096
COc1ccccc1CNCCc1cccc(C(N)=O)c1,10.71,-10.34 & -4.153
CSCC(=O)N1CCOC(c2nc(C(C)C)n[nH]2)C1 (centres undefined),-0.1506,11.99
COc1ccccc1-c1cc(C(=O)N2CCCC2)c2cnn(C)c2n1,-28.4,-6.593
c1csc(CN2CCCN(c3ccc(Cn4ccnc4)cn3)CC2)c1,-6.669,13.73
O=C(COCc1nc(-c2ccncc2)no1)N1CCCCC1,-4.446,35.85
CC(C)CCN(C(=O)Nc1cccc(C(=O)N(C)C)c1)C1CC1,-13.9,-0.6789 & -17.98
CC(C)(C)CN1CCCC(O)(CN2CCc3[nH]ncc3C2)C1=O (centres undefined),-13.73,3.318
CCNC(=O)CS(=O)(=O)NC1CCC(C)CC1 (centres undefined),-12.02,-0.9491
O=C(NCCN1CCOCC1)NCc1ccc(-n2cccn2)cc1,-14.11,-10.14
CC(C)CCNC(=O)NC(C)c1nncn1C (centres undefined),7.152,8.277
CCOCC1CN(Cc2nccs2)Cc2nn(CC3CC3)cc21.O=C(O)C(F)(F)F (centres undefined),-14.5,-11.09
Fc1ccc(N2CCCN(Cc3ccc(-c4cc[nH]n4)o3)CC2)cc1,10.79 & 9.356,11.99
Fc1ccccc1CC1CCN(Cc2nccs2)CC1,17.35,28.22
Cc1nc(Nc2ncccn2)cc(C2CCCN2C(C)C)n1 (centres undefined),-7.243,-6.101
[H][C@]12CN(c3ncccn3)C[C@@]1([H])S(=O)(=O)CC[C@H]2C(=O)N1CCOCC1,-36.64,-5.874
CCOCC(=O)N1CCC(C)(c2nccs2)CC1,-15.99 & -6.14,-9.462
CC1CN(c2ncccc2C(=O)N[C@@H]2CCCc3ccccc32)CCN1 (some centres undefined),-8.936,-17.56
CCOc1c(Cl)cccc1NS(=O)(=O)c1cc(C)c(C(=O)O)s1,5.526,-1.128 & 4.276
[H][C@]12CCN(Cc3cnc(-c4cccc(OC)c4)s3)C[C@]([H])(CC1)N2,39.79,27.26 & 39.42
CN(C)S(=O)(=O)N1CC[C@]2(C[C@H](Oc3cccnc3)CO2)C1.O=C(O)C(F)(F)F,-21.05,-9.321
CCCNC(=O)C(C)NC(=O)Nc1ccccc1SC(F)F (centres undefined),-16.15,-36.61 & -6.864
O=C(O)C(F)(F)F.[H][C@@]12OCCN(S(C)(=O)=O)[C@@]1([H])CC[C@@H]2Oc1ncccc1F,-8.115,15.72
CCn1c(C2CCN(C(=O)c3cc(Cl)no3)CC2)nn(C)c1=O,-15.74,-19.25
Cc1nccn1-c1cc(CNC(=O)C2CCC(=O)NC2)ccn1 (centres undefined),3.044 & -4.026,19.94
CC1(CNC(=O)NCc2ccsc2)CCCS1 (centres undefined),27.44,-8.241
CN(Cc1cccnc1)CC1CC12CCN(Cc1nccs1)CC2 (centres undefined),-20.14,8.006 & 0.5424
CCCC(=O)NC1CCN(c2ccccc2S(=O)(=O)CC)CC1,-5.87,-5.022 & -30.85
Cc1nc(CC(=O)N2CCOC(c3nc(C(C)(C)C)n[nH]3)C2)cs1 (centres undefined),20.63,0.1093 & -2.87
Cc1nnc(CN(C)C2CCN(CCc3ccccn3)CC2)o1,5.557,-61.79 & -2.047
Cn1cc(CNc2nc3cc(Cl)ccc3n2C)cn1,0.7599,-22.4 & -6.501
CN(C)C(=O)N1CCC2(C1)CN(c1cccnc1)C(=O)CN2C (centres undefined),-0.4469,7.268
Cc1nc(O)c2nnn(C[C@H]3CCCN3C(=O)C(C)(C)C)c2n1,-4.496,12.15
CCC1(c2ccc(NS(=O)(=O)c3cccs3)cc2)CCC(=O)NC1=O (centres undefined),8.737,20.91 & 1.027
O=C(Cc1ccsc1)N1CCCCC1c1ccn2ccnc2n1 (centres undefined),-2.986,-20.09
O=C(CCc1ccco1)N1CCC(Nc2cccnn2)CC1,11.18,2.299 & 18.35
Cn1cc(NC(=O)c2ccccn2)cc(Br)c1=O,12.38,-13.41
CSc1ccccc1C(=O)NCCCN1CCc2ccccc2C1,-0.2522,10.31
O=C(NCc1cccnc1N1CCCC(O)C1)c1ccc2[nH]nnc2c1 (centres undefined),-11.81,-23.38
COC(=O)N1CCC(NC(=O)c2cc(S(N)(=O)=O)ccc2C)CC1,-18.84,7.281
CSc1ccc(CN2CCCC3(CNC(=O)c4ccccc4O3)C2)cc1 (centres undefined),9.641,6.371
CCC(NS(=O)(=O)c1ccc(C(=O)NC2CC2)cc1)c1cnn(C)c1 (centres undefined),-4.099,4.869 & 3.489
Cc1cnn(CC2CCCN2CC(=O)NC2CCOCC2)c1 (centres undefined),1.728,16.38
CC(C)N1CCC(Cc2cncc(-c3cc(F)ccc3C(=O)O)n2)CC1,10.07,15.9
O=C(CCN1CCc2c(ncn2C2CC2)C1)NC1CCCC1,-28.65,5.201
[H][C@@]12C[C@H](C)O[C@]1([H])CCN(S(=O)(=O)c1ccc(F)cc1)C2,-4.806,-2.934
CN(Cc1csc(-c2ccccc2)n1)C(=O)CCNS(C)(=O)=O,19.44,0.4687 & 3.975
COc1cccc(CN2CCCC3(CCN(C(CO)CO)C3)C2)c1 (centres undefined),-6.987,2.01 & -11.63
Cc1ccc(CN2CCC3(CC2)CCN(C(=O)c2cccn2C)C3)cc1.O=C(O)C(F)(F)F,12.69,14.52
CC(=O)N1CCCC1c1nccc(C)n1 (centres undefined),-22.71,4.011
Cc1nn(C)c(N(C)C)c1CNCC(O)COc1cccc(F)c1 (centres undefined),3.563,-11.86
Cn1nc(Cn2cccc2)c2c1CN(Cc1ccoc1)C2.O=C(O)C(F)(F)F,3.74,10.37 & 27.15
Cc1ccc(F)c2c1N(C(=O)Cc1c(C)nn(C)c1C)CCC2,3.156,10.19 & 8.352